# In the supplement of paper PMC12819154, “High-throughput peptide-centric local stability assay extends protein–ligand identification to membrane proteins, tissues and bacteria” (Nature Structural & Molecular Biology, 2025):
# Sequences of proteins named here, by UniProt entry; tags and fusion partners are left off. A change or cut given only in a name is not applied to a line headed by its entry.
# UniProt P46118: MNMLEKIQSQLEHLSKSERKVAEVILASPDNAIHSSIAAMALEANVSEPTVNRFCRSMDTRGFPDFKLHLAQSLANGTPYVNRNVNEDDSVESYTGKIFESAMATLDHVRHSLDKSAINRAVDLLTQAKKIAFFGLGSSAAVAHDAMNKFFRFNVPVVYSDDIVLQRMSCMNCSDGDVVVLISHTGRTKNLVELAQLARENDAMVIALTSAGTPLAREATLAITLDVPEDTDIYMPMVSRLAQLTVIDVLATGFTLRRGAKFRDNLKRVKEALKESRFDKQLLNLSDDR
# UniProt P61887: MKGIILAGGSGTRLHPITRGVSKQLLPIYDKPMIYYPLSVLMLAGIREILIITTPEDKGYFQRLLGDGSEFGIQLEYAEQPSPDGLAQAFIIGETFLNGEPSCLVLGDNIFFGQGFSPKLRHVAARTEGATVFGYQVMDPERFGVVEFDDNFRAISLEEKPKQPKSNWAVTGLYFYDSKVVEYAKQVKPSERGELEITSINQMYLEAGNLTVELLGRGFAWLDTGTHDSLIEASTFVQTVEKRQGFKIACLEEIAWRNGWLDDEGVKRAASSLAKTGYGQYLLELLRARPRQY
# UniProt P69789: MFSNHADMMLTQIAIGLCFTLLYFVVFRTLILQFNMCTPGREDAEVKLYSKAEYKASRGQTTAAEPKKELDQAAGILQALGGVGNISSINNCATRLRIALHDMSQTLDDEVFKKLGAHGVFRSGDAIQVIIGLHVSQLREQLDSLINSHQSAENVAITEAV
# UniProt P46853: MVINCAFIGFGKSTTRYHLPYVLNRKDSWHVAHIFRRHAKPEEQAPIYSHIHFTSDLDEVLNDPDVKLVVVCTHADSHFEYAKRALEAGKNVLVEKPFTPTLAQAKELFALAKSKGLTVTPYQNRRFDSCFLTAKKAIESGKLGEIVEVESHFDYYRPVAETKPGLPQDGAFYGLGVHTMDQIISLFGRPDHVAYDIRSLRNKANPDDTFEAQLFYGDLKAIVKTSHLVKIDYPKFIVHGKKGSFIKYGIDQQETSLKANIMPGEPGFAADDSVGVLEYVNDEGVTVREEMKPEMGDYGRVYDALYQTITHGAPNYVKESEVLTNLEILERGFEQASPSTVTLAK
# UniProt P56614: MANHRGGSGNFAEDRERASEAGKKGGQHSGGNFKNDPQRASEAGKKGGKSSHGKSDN
# UniProt P75839: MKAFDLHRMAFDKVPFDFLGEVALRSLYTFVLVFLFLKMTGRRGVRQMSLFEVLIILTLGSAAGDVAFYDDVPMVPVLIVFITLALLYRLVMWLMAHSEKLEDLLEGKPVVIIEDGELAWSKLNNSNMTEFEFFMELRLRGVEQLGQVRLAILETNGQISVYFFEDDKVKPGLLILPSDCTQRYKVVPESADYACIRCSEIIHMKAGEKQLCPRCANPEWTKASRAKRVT
# UniProt P52096: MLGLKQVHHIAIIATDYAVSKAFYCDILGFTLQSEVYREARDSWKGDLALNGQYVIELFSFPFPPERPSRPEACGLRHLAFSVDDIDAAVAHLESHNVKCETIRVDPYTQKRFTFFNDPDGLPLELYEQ
# UniProt P52045: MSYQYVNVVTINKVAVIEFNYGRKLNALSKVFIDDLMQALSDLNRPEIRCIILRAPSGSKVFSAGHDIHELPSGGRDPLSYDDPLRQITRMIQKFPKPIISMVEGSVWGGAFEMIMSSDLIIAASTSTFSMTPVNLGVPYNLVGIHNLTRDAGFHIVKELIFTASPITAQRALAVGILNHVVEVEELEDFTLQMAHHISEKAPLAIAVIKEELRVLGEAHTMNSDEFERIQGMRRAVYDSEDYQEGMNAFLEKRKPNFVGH
# UniProt P46887: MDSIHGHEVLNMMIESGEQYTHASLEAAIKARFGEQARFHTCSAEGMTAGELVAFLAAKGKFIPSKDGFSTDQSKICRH
# UniProt P75862: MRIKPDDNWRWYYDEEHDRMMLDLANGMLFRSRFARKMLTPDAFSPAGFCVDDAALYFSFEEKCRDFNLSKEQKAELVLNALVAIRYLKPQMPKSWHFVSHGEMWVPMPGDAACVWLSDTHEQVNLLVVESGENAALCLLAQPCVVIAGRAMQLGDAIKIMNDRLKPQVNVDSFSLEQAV
# UniProt P52052: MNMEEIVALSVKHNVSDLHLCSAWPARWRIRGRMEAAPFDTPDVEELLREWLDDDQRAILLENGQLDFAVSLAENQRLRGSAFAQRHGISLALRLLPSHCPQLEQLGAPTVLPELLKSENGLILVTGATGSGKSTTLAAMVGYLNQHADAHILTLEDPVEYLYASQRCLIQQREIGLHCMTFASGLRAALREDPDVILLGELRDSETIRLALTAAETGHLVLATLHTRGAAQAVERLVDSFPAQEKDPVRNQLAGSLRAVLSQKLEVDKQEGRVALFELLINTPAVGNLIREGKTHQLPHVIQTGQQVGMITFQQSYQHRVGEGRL
# This is one part of the list. Small differences around the control level are noise.
# Compound: CC1(C)S[C@@H]2[C@H](NC(=O)[C@H](N)c3ccccc3)C(=O)N2[C@H]1C(=O)O [ampicillin]
# Experiment: log2 fold change of tryptic peptide abundance, ligand vs vehicle (limited proteolysis) (log2 ratio); higher = more trypsin-susceptible (destabilized)
# Details: ligand concentration: 10 uM; sample: E. coli crude lysate
row,Target,log2 fold change
1,"UniProt P46118 (peptide sequence: KIAFFGLGSSAAVAHDAMNK, peptide start residue: 130)",0.413
2,"UniProt P61887 (peptide sequence: IACLEEIAWR, peptide start residue: 248)",-0.228
3,"UniProt P69789 (peptide sequence: LYSKAEYK, peptide start residue: 48)",-0.00545
4,"UniProt P46853 (peptide sequence: GLTVTPYQNR, peptide start residue: 116)",-0.38
5,"UniProt P56614 (peptide sequence: GGSGNFAEDRER, peptide start residue: 6)",-0.171
6,"UniProt P75839 (peptide sequence: YKVVPESADYACIR, peptide start residue: 184)",0.289
7,"UniProt P52096 (peptide sequence: HLAFSVDDIDAAVAHLESHNVK, peptide start residue: 78)",0.73
8,"UniProt P52045 (peptide sequence: VLGEAHTMNSDEFER, peptide start residue: 215)",-0.118
9,"UniProt P46887 (peptide sequence: GKFIPSKDGFSTDQSK, peptide start residue: 60)",0.0732
10,"UniProt P75862 (peptide sequence: YLKPQMPK, peptide start residue: 87)",0.23
11,"UniProt P52052 (peptide sequence: EIGLHCMTFASGLR, peptide start residue: 174)",0.141
